PMC5773555, “Structural basis of SALM5-induced PTPδ dimerization for synaptic differentiation” (Nature Communications, 2018)
Results are given in words; binding and its absence hold for the method and conditions named. For some assays here: Tags and fused reporters may be left off the sequences shown.

T1: Fc-tagged human PTPδ Ig1–3 (MeA^−) (human) (UniProt P23468)
T1 sequence: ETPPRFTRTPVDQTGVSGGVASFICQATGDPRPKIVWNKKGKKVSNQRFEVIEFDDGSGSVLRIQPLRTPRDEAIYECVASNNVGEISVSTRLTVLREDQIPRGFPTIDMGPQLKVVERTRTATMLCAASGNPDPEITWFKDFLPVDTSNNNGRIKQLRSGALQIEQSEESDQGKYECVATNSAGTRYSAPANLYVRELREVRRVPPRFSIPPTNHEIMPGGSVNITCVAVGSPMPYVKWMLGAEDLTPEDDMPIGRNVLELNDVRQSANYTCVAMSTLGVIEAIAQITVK


What was measured:
[1] = biological target: T1, Fc-tagged human PTPδ Ig1–3 (MeA^−) (human); test: pull-down; SALM5 LRR-Ig mixed with PTPδ Ig1–3 (MeA^−)-Fc at molar ratio 1.5:1, captured on Protein G Sepharose, room temperature 2 h, PBS washes, SDS-PAGE with Coomassie staining; both purified
[2] = biological target: T1, Fc-tagged human PTPδ Ig1–3 (MeA^−) (human); test: SPR; Biacore T200, 25 °C; Fc-tagged PTPδ Ig1–3 (MeA^−) amine-coupled to CM5 (about 500 RU); SALM5 LRR-Ig analytes 23.43-1500 nM; 10 mM HEPES pH 7.4, 150 mM NaCl, 3 mM EDTA, 0.05% P20; 1:1 Langmuir model; both purified
[3] = biological target: human PTPδ Ig1–3 (MeA^−) (human) (UniProt P23468); test: crystal structure; SALM5 LRR-Ig in complex with PTPδ Ig1–3 (MeA^−), Endo H trimmed; 3.73 Å; 0.76 M potassium sodium tartrate, 0.1 M MES pH 6.0; molecular replacement; both purified

| Binder | binding [1] | binding [2] | binding [3] |
| --- | --- | --- | --- |
| human SALM5 LRR-Ig E365N (domain or fragment, UniProt Q96NI6 18-374, introduced N-linked glycan wedge GlcNAc2Man5 (confirmed by mass spectrometry)) QICPKRCVCQILSPNLATLCAKKGLLFVPPNIDRRTVELRLADNFVTNIKRKDFANMTSLVDLTLSRNTISFITPHAFADLRNLRALHLNSNRLTKITNDMFSGLSNLHHLILNNNQLTLISSTAFDDVFALEELDLSYNNLETIPWDAVEKMVSLHTLSLDHNMIDNIPKGTFSHLHKMTRLDVTSNKLQKLPPDPLFQRAQVLATSGIISPSTFALSFGGNPLHCNCELLWLRRLSREDDLETCASPPLLTGRYFWSIPEEEFLCEPPLITRHTHEMRVLEGQRATLRCKARGDPEPAIHWISPEGKLISNATRSLVYDNGTLDILITTVKDTGAFTCIASNPAGNATQIVDLHI | no binding | no binding (tested: 1500 nM (highest concentration injected)) |  |
| human SALM5 LRR-Ig K309N/R311T (domain or fragment, UniProt Q96NI6 18-374, introduced N-linked glycan wedge GlcNAc2Man5 (confirmed by mass spectrometry)) QICPKRCVCQILSPNLATLCAKKGLLFVPPNIDRRTVELRLADNFVTNIKRKDFANMTSLVDLTLSRNTISFITPHAFADLRNLRALHLNSNRLTKITNDMFSGLSNLHHLILNNNQLTLISSTAFDDVFALEELDLSYNNLETIPWDAVEKMVSLHTLSLDHNMIDNIPKGTFSHLHKMTRLDVTSNKLQKLPPDPLFQRAQVLATSGIISPSTFALSFGGNPLHCNCELLWLRRLSREDDLETCASPPLLTGRYFWSIPEEEFLCEPPLITRHTHEMRVLEGQRATLRCNATGDPEPAIHWISPEGKLISNATRSLVYDNGTLDILITTVKDTGAFTCIASNPAGEATQIVDLHI | no binding | no binding (tested: 1500 nM (highest concentration injected)) |  |
| human PTPδ Ig1–3 (MeA^−) (domain or fragment, UniProt P23468 21-320, looked up, Glycans trimmed with Endo H only for crystallization; also called MeA^−/MeB^+; source: BacMam baculovirus-transduced HEK293 GnTI- cells, secreted, purified (Ni-NTA, gel filtration); not shown: His7, C-terminal, kept) ETPPRFTRTPVDQTGVSGGVASFICQATGDPRPKIVWNKKGKKVSNQRFEVIEFDDGSGSVLRIQPLRTPRDEAIYECVASNNVGEISVSTRLTVLREDQIPRGFPTIDMGPQLKVVERTRTATMLCAASGNPDPEITWFKDFLPVDTSNNNGRIKQLRSGALQIEQSEESDQGKYECVATNSAGTRYSAPANLYVRELREVRRVPPRFSIPPTNHEIMPGGSVNITCVAVGSPMPYVKWMLGAEDLTPEDDMPIGRNVLELNDVRQSANYTCVAMSTLGVIEAIAQITVK |  |  | no binding |
